# US10835616B2 (POLYTHERICS LIMITED, priority 2014, dated 2020)
# How the values were obtained:
# [1] = tested on: Fab of trastuzumab produced by papain digestion; test: PEGylation at a reduced Fab disulfide bond, HIC HPLC (Example 43); settings: 22 h, 22° C., 1.5 eq. reagent per Fab
# [2] = general procedure: peptide synthesis; HATU/NMM; settings: conjugation step
Compound,% conversion to PEGylated Fab [1] [%],conjugation yield [2] [%]
"COCCOCCOCCOCCOCCOCCOCCOCCOCCOCCOCCOCCOCCOCCOCCOCCOCCOCCOCCOCCOCCOCCOCCOCCNC(=O)c1ccc(C(=O)C(CS(=O)(=O)CCOCCOCCOCCOCCOCCOCCOC)CS(=O)(=O)CCOCCOCCOCCOCCOCCOCCOC)cc1F [Reagent 63, bis-mPEG(7u)-sulfone-propanoyl-2-fluoro-benzamide-PEG(24u)]",95,–
"COCCOCCOCCOCCOCCOCCOCCSC1=C(SCCOCCOCCOCCOCCOCCOCCOC)C(=O)N(CCOCCOCCOCCOCCOCCOCCOCCOCCOCCOCCOCCOCCOCCOCCOCCOCCOCCOCCOCCOCCOCCOCCOCCOCCC(=O)O)C1=O [Reagent 70, bis-mPEG(7u)-maleimide-PEG(24u)-acid]",90,–
Bis-mPEG(7u)sulfone-propanoyl-benzamide-L-Glu-(val-cit-PAB-MMAE)-Glu-[HN-PEG(12u)-Me]2,–,69
"COCCOCCOCCOCCOCCOCCOCCNCC(CNCCOCCOCCOCCOCCOCCOCCOC)C(=O)c1ccc(C(=O)NCCOCCOCCOCCOCCOCCOCCOCCOCCOCCOCCOCCOCCOCCOCCOCCOCCOCCOCCOCCOCCOCCOCCOCCOCCC(=O)OC(C)(C)C)cc1 [Reagent 68, bis-mPEG(7u)-amino-propanoyl-benzamide-PEG(24u)-^tButyl ester]",90,–
